In data set [1] the test system is GST-RhNAP. The data set is described as follows: EMSA. The following applies: 3 ug protein, 25 pM probe, LightShift chemiluminescent EMSA kit (Pierce), per manufacturer, native PAGE, 25 pM biotin probe, pH and temperature not stated, recombinant protein.
In a further data set the test system is GST. The data set can be described thus: EMSA. The conditions noted are these: GST control, no band; LightShift chemiluminescent EMSA kit (Pierce), per manufacturer; native PAGE; 3 ug protein, 25 pM biotin probe; pH and temperature not stated; recombinant protein.
For data set [2], the system named is GST-RhNAP. The data set can be described thus: competition with a labelled probe. The conditions noted are these: unlabeled competitor 10x to 100x against biotin probe, signal gradually weakened; LightShift chemiluminescent EMSA kit (Pierce), per manufacturer; native PAGE; 3 ug protein, 25 pM biotin probe; pH and temperature not stated; recombinant protein.

The values below come from article PMC10515265.

Construct, isoform or probe ends are uncertain for at least one entry. For part of these data: Negatives hold for the conditions tested.

As to “CTCATCTGATCATTCACGTGCGCAAGACATG (double strand) [RhCKX6 promoter 31-bp probe (-558 to -528)]”, the binding result with GST-RhNAP [1] is reported as “binds”; with GST, “no binding”.

Take “CTCATCTGATCATTCACGTGCGCAAGACATG (double strand) [RhCKX6 promoter 31-bp unlabeled competitor]”: the binding result with GST-RhNAP [2] is listed as “binds”.
